# Assay results as given in US20250276077A1, “EPHA2 ANTIBODIES” (Immunome, Inc., priority 2022, published 2025).
# Amino acid sequences for entries named in this document (tags omitted). A change or cut given only in a name is not applied to a line headed by its entry. Residues count along the entry.
# UniProt P29317: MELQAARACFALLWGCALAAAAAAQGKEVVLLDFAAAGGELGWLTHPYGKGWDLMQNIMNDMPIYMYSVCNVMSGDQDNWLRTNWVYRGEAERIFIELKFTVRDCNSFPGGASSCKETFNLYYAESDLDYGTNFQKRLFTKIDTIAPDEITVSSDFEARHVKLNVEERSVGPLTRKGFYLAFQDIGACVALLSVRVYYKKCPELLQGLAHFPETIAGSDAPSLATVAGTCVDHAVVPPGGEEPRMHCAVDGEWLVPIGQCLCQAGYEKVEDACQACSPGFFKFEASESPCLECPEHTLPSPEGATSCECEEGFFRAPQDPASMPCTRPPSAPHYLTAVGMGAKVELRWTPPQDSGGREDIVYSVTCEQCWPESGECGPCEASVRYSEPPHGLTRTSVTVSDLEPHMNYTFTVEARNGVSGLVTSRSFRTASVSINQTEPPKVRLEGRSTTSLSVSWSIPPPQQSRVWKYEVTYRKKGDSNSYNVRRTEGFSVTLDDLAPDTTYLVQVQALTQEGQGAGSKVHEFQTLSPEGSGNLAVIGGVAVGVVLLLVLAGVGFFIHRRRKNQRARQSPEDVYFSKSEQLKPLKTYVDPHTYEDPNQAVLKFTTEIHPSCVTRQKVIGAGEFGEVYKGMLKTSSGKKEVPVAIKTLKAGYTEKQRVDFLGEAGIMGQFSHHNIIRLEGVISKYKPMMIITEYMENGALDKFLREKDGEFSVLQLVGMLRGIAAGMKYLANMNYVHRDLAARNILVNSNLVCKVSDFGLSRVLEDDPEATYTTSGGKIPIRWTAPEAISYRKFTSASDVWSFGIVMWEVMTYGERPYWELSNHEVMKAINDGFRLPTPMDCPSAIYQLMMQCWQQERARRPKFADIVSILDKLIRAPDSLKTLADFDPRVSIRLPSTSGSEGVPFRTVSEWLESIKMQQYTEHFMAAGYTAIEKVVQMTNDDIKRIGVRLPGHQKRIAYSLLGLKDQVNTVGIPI
# UniProt P20827, residues 19-182: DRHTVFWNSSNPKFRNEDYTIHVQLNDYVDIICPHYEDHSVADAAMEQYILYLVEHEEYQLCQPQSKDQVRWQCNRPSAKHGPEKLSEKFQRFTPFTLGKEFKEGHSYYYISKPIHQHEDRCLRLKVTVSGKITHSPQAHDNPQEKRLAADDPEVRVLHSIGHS
# Results are given in words; binding and its absence hold for the method and conditions named. Some binding calls cover weakened binding; strength is not graded here.
# How the values were obtained:
# [1] = biological target: Extracellular domain of human EphA2 (25-534) with a C-terminal HIS tag (R&D Systems, 3035-A2) (human) (UniProt P29317); assay: BLI in-tandem binning matrix, EphA2 ECD-His; competitor: 8873-2
# [2] = biological target: Extracellular domain of human EphA2 (25-534) with a C-terminal HIS tag (R&D Systems, 3035-A2) (human) (UniProt P29317); assay: BLI in-tandem binning matrix, EphA2 ECD-His; competitor: 10018-01
substance,measurement,setting,value
"EphrinA1 fused to Fc (Acro, EF1-H5251) (from UniProt P20827 19-182) (Fc fusion)",binding,[1],binds
same,binding,[2],binds
